Laboratory results published in US20200190204A1.
These are yes or no findings as the source states them, for the method shown. Some binding calls cover weakened binding; strength is not graded here.

Chains of the proteins cited; added tags and fusions are not shown.
UniProt Q96RJ3: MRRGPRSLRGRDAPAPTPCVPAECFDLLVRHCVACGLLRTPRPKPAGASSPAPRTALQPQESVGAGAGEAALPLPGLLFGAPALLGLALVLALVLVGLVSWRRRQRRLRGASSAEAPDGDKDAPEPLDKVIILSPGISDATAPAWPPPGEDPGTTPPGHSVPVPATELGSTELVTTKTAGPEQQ

Experiments:
[1] = molecular target: human BAFF-R on human B-cell lines, primary lymphoma samples and normal B cells (human) (UniProt Q96RJ3); assay: flow cytometry of primary patient samples, Alexa Fluor-488-conjugated chimeric antibody (FITC-A)
[2] = molecular target: human BAFF-R on human B-cell lines, primary lymphoma samples and normal B cells (human) (UniProt Q96RJ3); assay: flow cytometry, directly labelled antibody; also NHL primary patient samples (FIG. 1E)
[3] = molecular target: human BAFF-R on human B-cell lines, primary lymphoma samples and normal B cells (human) (UniProt Q96RJ3); assay: flow cytometry (FIG. 1D); also bound MCL, DLBCL and FL primary tumor samples
[4] = molecular target: human BAFF-R on human B-cell lines, primary lymphoma samples and normal B cells (human) (UniProt Q96RJ3); assay: flow cytometry, Alexa Fluor-488-conjugated chimeric antibody, direct staining
[5] = molecular target: human BAFF-R on human B-cell lines, primary lymphoma samples and normal B cells (human) (UniProt Q96RJ3); assay: flow cytometry of mouse mAb Clones 55 and 90 (0.05 µg mAb/10^6 cells) on isolated B cells
[6] = molecular target: human BAFF-R on human B-cell lines, primary lymphoma samples and normal B cells (human) (UniProt Q96RJ3); assay: flow cytometry on Mino cells, purified mouse mAb; sample names give 0.0016, 0.008, 0.04, 0.2 and 1 (µg/10^6 cells by the legend); anti-mouse IgG APC
[7] = molecular target: human BAFF-R on human B-cell lines, primary lymphoma samples and normal B cells (human) (UniProt Q96RJ3); assay: flow cytometry (FIG. 8)
[8] = molecular target: human BAFF-R on human B-cell lines, primary lymphoma samples and normal B cells (human) (UniProt Q96RJ3); assay: flow cytometry (FIG. 10)
[9] = molecular target: human BAFF-R on human B-cell lines, primary lymphoma samples and normal B cells (human) (UniProt Q96RJ3); assay: flow cytometry on JeKo-1, SU-DHL-6, Raji and RL, anti-mouse IgG-APC
[10] = molecular target: human BAFF-R on human B-cell lines, primary lymphoma samples and normal B cells (human) (UniProt Q96RJ3); assay: flow cytometry of primary patient samples, mouse mAb + anti-mouse IgG-APC; high 2 µg and low 0.05 µg per 10^6 cells by the legend
[11] = molecular target: human BAFF-R on human B-cell lines, primary lymphoma samples and normal B cells (human) (UniProt Q96RJ3); assay: flow cytometry, mouse mAb at 0.05 ug/10^6 cells + Anti-(m)IgG-APC
[12] = molecular target: human BAFF-R on human B-cell lines, primary lymphoma samples and normal B cells (human) (UniProt Q96RJ3); assay: flow cytometry, 0.05 µg mAb/10^6 cells
[13] = molecular target: human BAFF-R on human B-cell lines, primary lymphoma samples and normal B cells (human) (UniProt Q96RJ3); assay: flow cytometry on MCL, DLBCL and FL patient samples, anti-mouse IgG-APC
[14] = molecular target: human BAFF-R on human B-cell lines, primary lymphoma samples and normal B cells (human) (UniProt Q96RJ3); assay: flow cytometry, mouse mAb + Anti-(m)IgG-APC
[15] = molecular target: human BAFF-R on human B-cell lines, primary lymphoma samples and normal B cells (human) (UniProt Q96RJ3); assay: flow cytometry of purified mouse mAb (1 µg/10^6 cells-1.6 ng/10^6 cells) on Mino cells
[16] = molecular target: human BAFF-R on human B-cell lines, primary lymphoma samples and normal B cells (human) (UniProt Q96RJ3); assay: flow cytometry, purified mouse mAb at 0.05 µg/10^6 cells, a(m)IgG-APC
[17] = molecular target: human BAFF-R on human B-cell lines, primary lymphoma samples and normal B cells (human) (UniProt Q96RJ3); assay: flow cytometry, hybridoma supernatant at 1/10, 1/50 and 1/200, anti-mouse IgG-APC
[18] = molecular target: human BAFF-R on human B-cell lines, primary lymphoma samples and normal B cells (human) (UniProt Q96RJ3); assay: flow cytometry of supernatants (1/10, 1/50, 1/200) on Mino cells, anti-mouse IgG-APC
[19] = molecular target: human BAFF-R on human B-cell lines, primary lymphoma samples and normal B cells (human) (UniProt Q96RJ3); assay: flow cytometry of protein A purified mouse mAb

Measured: binding

B1: chimeric anti-BAFF-R antibody C55 (antibody, V domains shown)
VH: QVTLKESGPGILKPSQTLSLTCSFSGFSLSTSGMGVGWIRQPSGKGLEWLAHIWWDDDKYYNSSLKSHLTISKDTSRNQVFLKITSVDTADTATYYCARSFGYGLDYWGQGTTLTVSS
VL: DIQMTQTTSSLSASLGDRVTISCSASQDISNYLNWYQQKPDGTVKLLIYYTSSLHSGVPSRFSGSGSGTDYSLTISSLEPEDIATYYCHQFSELPWTFGGGTKLEIKR
binds: [1] | [2] | [3] | [4]

B2: mouse mAb Clone 55 (hybridoma) (antibody, V domains shown)
VH: B1 VH
VL: B1 VL
binds: [5] | [6] | [7] | [8] | [9] | [10] | [11] | [12] | [13] | [14] | [15] | [16] | [17] | [18] | [19]
